At least one structure is not confirmed: it was looked up by name or label, or the drawing left a doubt.
System: chronic cyclophosphamide (CYP)-induced overactive bladder mouse model
Test: Overactive Bladder In Vivo Model (chronic cyclophosphamide-induced)
Details: tadalafil 10 mg/kg alone
Method: The in vivo effect of PDE4 inhibitors on OAB is studied with a chronic cyclophosphamide (CYP)-induced overactive bladder mouse model adapted from Boudes et al., Neurourol. Urodynam. 2011. In a typical study, female C57/Bl6 mice, approximately 20 grams in body weight (Harlan Laboratories, Inc., Indianapolis, Ind.) are used. Mice are randomized by body weight into groups one day before the start of the study. Mice are individually housed and maintained on a 12 hour light/dark cycle at 22° C. with ad lib access to food (TD 2014 with 0.72% Ca and 0.61% P, 990 IU/g D3, Teklad™, Madison, Wis.) and water. Animals receive cyclophosphamide (dissolved in physiological saline) i.p. administration at 100 mg/kg on days 1, 3, 5, and 7 to chronically induce OAB. The vehicle control group received daily vehicle (HEC 1%/Tween 80 0.25%/Antifoam 0.05%) administered orally. All other groups are administered orally tadalafil at 10 mg/kg in combination with 0.1, 1.0, or 10.0 mg/kg of test compound daily at a volume of 200 μl/mouse. On day 8, mice are housed in urine collection chambers with a filter paper placed underneath chamber. Prior to urine collection, gavages of 1 ml water are given to each mouse. Urine is collected from 6 pm to 10 pm (i.e. for 4 hrs). […] Voiding frequency and volume/void are calculated using Image J software (NIH). Data are statistically analyzed with JMP8® software (Cary, N.C.). […]

Which “activity on urinary frequency” value does the source give for `CN1CC(=O)N2[C@H](c3ccc4c(c3)OCO4)c3[nH]c4ccccc4c3C[C@@H]2C1=O` [tadalafil, reference compound] here?
Its value is “no significant activity”.

What about the “activity on volume per void” value of the same molecule?
Its value is “no significant activity”.

Source: US9266859B2, “Azetidinyloxyphenylpyrrolidine compounds” (Eli Lilly and Company, priority 2013, dated 2016)
